In article PMC8184862:
No constants are given. Whether binding was seen depends on the method and setting. Binding seen in cells or lysates may run through a third protein. A yes stands for co-enrichment or nearness to the bait. Other partners may have been found.

The chains behind the UniProt entries cited, without tags or fusion partners.
UniProt P47196: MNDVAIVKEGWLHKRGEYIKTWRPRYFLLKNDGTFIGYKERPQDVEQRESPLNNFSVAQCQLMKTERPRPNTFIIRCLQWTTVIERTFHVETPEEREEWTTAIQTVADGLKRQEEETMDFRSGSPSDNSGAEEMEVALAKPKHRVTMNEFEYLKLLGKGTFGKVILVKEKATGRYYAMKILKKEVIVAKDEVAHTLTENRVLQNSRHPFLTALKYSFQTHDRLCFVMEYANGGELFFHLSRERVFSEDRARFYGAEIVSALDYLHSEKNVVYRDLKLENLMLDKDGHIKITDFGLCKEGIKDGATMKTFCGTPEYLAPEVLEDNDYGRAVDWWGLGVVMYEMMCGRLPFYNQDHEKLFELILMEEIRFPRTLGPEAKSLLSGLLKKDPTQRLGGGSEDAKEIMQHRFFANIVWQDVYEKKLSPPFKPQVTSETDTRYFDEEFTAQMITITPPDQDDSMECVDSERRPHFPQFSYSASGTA
UniProt P42930: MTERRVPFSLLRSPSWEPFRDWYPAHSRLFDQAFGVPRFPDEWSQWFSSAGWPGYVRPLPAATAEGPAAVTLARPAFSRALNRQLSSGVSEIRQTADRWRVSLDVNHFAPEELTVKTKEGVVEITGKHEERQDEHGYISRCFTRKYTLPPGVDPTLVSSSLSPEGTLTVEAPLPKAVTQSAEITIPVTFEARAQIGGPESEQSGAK

Biological target: Akt1 (rat (endogenous in REKs)) (UniProt P47196)
Assay: affinity purification with mass spectrometry; immunoprecipitation with an Akt1-specific antibody from REK lysate (RIPA buffer, Dynabeads Protein G); eight major SDS-PAGE gel bands analysed by LC-MS/MS; IgG1 control

## HspB1 (from UniProt P42930 1-206)
  binding: binds
